Results taken from article PMC10868759.
These are yes or no findings as the source states them, for the method shown. Binding seen in cells or lysates may run through a third protein. These calls come from enrichment with a bait or labelling near it, and not all partners need be listed. Where a sequence is shown, tags or fusion partners need not be part of it.

T1: YFP-CESA6 (Arabidopsis thaliana) (UniProt Q94JQ6)
T1 sequence: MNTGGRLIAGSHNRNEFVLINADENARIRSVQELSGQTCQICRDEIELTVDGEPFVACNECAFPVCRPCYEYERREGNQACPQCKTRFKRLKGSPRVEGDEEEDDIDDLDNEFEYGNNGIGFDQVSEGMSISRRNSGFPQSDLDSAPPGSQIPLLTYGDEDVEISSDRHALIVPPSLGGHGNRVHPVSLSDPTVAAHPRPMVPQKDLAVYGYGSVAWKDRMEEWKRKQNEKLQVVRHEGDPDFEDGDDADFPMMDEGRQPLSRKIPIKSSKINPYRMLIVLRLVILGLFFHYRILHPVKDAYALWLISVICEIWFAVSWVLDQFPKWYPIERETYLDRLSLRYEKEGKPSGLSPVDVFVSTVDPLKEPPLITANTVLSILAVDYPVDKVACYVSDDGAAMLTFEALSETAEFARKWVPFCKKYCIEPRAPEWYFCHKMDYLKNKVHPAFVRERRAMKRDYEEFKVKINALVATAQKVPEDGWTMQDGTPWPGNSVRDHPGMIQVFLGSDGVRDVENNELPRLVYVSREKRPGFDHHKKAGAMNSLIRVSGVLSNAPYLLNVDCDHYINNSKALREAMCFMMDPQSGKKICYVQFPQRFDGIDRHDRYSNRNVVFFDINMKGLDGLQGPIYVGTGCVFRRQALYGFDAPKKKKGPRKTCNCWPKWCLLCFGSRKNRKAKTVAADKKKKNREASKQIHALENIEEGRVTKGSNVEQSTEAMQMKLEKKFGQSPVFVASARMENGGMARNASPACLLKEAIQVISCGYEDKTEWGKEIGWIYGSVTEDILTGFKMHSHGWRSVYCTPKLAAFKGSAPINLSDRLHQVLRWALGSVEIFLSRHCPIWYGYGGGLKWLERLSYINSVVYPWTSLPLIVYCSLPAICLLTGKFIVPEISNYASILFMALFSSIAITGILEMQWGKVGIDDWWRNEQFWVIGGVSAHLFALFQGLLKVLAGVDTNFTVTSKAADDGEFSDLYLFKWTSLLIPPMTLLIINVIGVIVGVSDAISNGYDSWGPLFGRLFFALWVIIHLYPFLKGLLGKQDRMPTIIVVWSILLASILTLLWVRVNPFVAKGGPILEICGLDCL


Molecular target: T1, YFP-CESA6 (Arabidopsis thaliana)
Assay: affinity purification with mass spectrometry; GFP-Trap A beads with 5 mg total protein extract of plants expressing YFP-CESA6 or LTi6b-GFP (control), overnight at 4°C; extraction buffer 100 mM Tris-HCl pH 7.5, 150 mM NaCl, 0.2% Nonidet P-40; washes with 150 mM and 500 mM NaCl; on-bead trypsin digestion, LC-MS/MS

Row | Binder | binding
1 | CGR3 (protein, UniProt Q0WPN7 1-258) MSRRQVRRVGDSGSFPFVGALHSKSRSSPLLSVCLVLVGACLLIGYAYSGPGMFKSIREVSKITGDYSCTAEVQRAIPILKSAYGDSMRKVLHVGPETCSVVSSLLNEEETEAWGVEPYDVEDADSNCKSLLHKGLVRVADIKFPLPYRSKSFSLVIVSDALDYLSPRYLNKTVPELARVASDGVVLLAGNPGQQKAKGGELSKFGRPAKMRSSSWWIRFFSQTNLEENEAASKKFEQAASKSSYKPACQVFHLKPLH | binds
2 | COTTON GOLGI-RELATED 2 (protein, UniProt Q9M2Y6 1-261) MARRQVGSTRRVGDGGSFPFAGALHSKSRSSPLLSICLVLVGACLLIGYAYSGPGIFKSIKEVSKVTGDYSCTAEVQRAIPVLKKAYGDGMRKVLHVGPDTCSVVSSLLKEEETEAWGVEPYDIEDADSHCKSFVSKGLVRVADIKFPLPYRAKSFSLVIVSDALDYLSPKYLNKTVPELARVASDGVVLFAGLPGQQRAKVAELSKFGRPAKMRSASWWNRFFVQTNLEENDAPSKKFEQAVSKGLYKPACQVFHLKPLH | binds
3 | CESA1 (protein, UniProt O48946 1-1081) MEASAGLVAGSYRRNELVRIRHESDGGTKPLKNMNGQICQICGDDVGLAETGDVFVACNECAFPVCRPCYEYERKDGTQCCPQCKTRFRRHRGSPRVEGDEDEDDVDDIENEFNYAQGANKARHQRHGEEFSSSSRHESQPIPLLTHGHTVSGEIRTPDTQSVRTTSGPLGPSDRNAISSPYIDPRQPVPVRIVDPSKDLNSYGLGNVDWKERVEGWKLKQEKNMLQMTGKYHEGKGGEIEGTGSNGEELQMADDTRLPMSRVVPIPSSRLTPYRVVIILRLIILCFFLQYRTTHPVKNAYPLWLTSVICEIWFAFSWLLDQFPKWYPINRETYLDRLAIRYDRDGEPSQLVPVDVFVSTVDPLKEPPLVTANTVLSILSVDYPVDKVACYVSDDGSAMLTFESLSETAEFAKKWVPFCKKFNIEPRAPEFYFAQKIDYLKDKIQPSFVKERRAMKREYEEFKVRINALVAKAQKIPEEGWTMQDGTPWPGNNTRDHPGMIQVFLGHSGGLDTDGNELPRLIYVSREKRPGFQHHKKAGAMNALIRVSAVLTNGAYLLNVDCDHYFNNSKAIKEAMCFMMDPAIGKKCCYVQFPQRFDGIDLHDRYANRNIVFFDINMKGLDGIQGPVYVGTGCCFNRQALYGYDPVLTEEDLEPNIIVKSCCGSRKKGKSSKKYNYEKRRGINRSDSNAPLFNMEDIDEGFEGYDDERSILMSQRSVEKRFGQSPVFIAATFMEQGGIPPTTNPATLLKEAIHVISCGYEDKTEWGKEIGWIYGSVTEDILTGFKMHARGWISIYCNPPRPAFKGSAPINLSDRLNQVLRWALGSIEILLSRHCPIWYGYHGRLRLLERIAYINTIVYPITSIPLIAYCILPAFCLITDRFIIPEISNYASIWFILLFISIAVTGILELRWSGVSIEDWWRNEQFWVIGGTSAHLFAVFQGLLKVLAGIDTNFTVTSKATDEDGDFAELYIFKWTALLIPPTTVLLVNLIGIVAGVSYAVNSGYQSWGPLFGKLFFALWVIAHLYPFLKGLLGRQNRTPTIVIVWSVLLASIFSLLWVRINPFVDANPNANNFNGKGGVF | binds

Further lines, results first:

Row | binding | Binder
4 | binds | GTPase Interacting Protein 4a (protein, UniProt O64614 1-281) MSQGDTVPLHPSSQSDIDEIENLINESVQSGPGTVLAARPPSPTRPSIPVSSSSSSSPFMQSNLPPLHPSSSAQKVTHVPVPPPLPAVSNSSNFQGASAFGSPPNTLTEPVWDTVKRDLSRIVSNLKLVVFPNPYREDPGKALRDWDLWGPFFFIVFLGLTLSWSASVKKSEVFAVAFALLAAGAVILTLNVLLLGGHIIFFQSLSLLGYCLFPLDVGAVICMLKDNVILKMVVVSVTLAWSSWAAYPFMSSAVNPRRKALALYPVFLMYVSVGFLIIAIN
5 | binds | RABA2C (protein, UniProt Q96283 1-217) MTHRVDQEYDYLFKIVLIGDSGVGKSNILSRFTRNEFCLESKSTIGVEFATRTTQVEGKTIKAQIWDTAGQERYRAITSAYYRGAVGALLVYDITKRQTFDNVLRWLRELRDHADSNIVIMMAGNKSDLNHLRSVAEEDGQSLAEKEGLSFLETSALEATNVEKAFQTILGEIYHIISKKALAAQEAAAANSAIPGQGTTINVDDTSGGAKRACCSS
